Calls as published in the ROBIN set (doi:10.1002/anie.202211358).

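The test is a small-molecule microarray: each compound is printed twice on a reactive slide, and binding shows as fluorescence of the labelled oligonucleotide after washing. For the PreQ1, TPP and SAM-II riboswitches the laboratory earlier reported (doi:10.1038/s41467-019-09493-3) 1 µM RNA, 2 h, and a rule that included a mean Z-score above 3 (spot signal-to-noise against the whole library), a score well above that on a control array, and duplicate spots agreeing (coefficient of variation under 100). The data file gives only the calls; its cut-offs may differ, and compounds hitting several targets are kept. A missing hit is not proof of no binding, and a hit is not a measured affinity.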
A compound is marked hit if it was called a hit and no hit if it was screened but was not.
Compounds were drawn at random from those tested, without regard to their results.
A target missing from an entry has no call listed here.

Targets (5′ to 3′):
SAM-II: SAM-II riboswitch RNA pseudoknot, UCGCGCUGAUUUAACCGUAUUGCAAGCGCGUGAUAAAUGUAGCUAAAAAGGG. About 21,000 compounds screened, about 200 hits.
TPP: TPP riboswitch RNA three-way junction, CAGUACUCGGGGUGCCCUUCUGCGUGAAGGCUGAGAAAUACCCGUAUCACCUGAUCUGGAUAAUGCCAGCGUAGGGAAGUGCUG. About 24,000 compounds screened, about 160 hits.
PreQ1: PreQ1 riboswitch RNA pseudoknot, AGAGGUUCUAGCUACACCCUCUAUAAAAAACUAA. From B. subtilis. About 24,000 compounds screened, about 170 hits.

Calls for Cc1nc(N(C)C)ncc1C(=O)NCCN1CCCC(CO)C1 (stereo not drawn) are SAM-II: no hit; TPP: no hit; PreQ1: no hit. With NCCO[C@H]1C[C@@H](O)C12CCN(Cc1ccc3nsnc3c1)CC2 the screen gave SAM-II: no hit; TPP: no hit; PreQ1: no hit. N#CC1=C(N)Oc2[nH]nc(C(F)(F)F)c2C1c1ccccc1Cl (stereo not drawn) was scored SAM-II: no hit; TPP: no hit; PreQ1: no hit. With Cc1sc2ncnc(N3CCC(NCc4cc[nH]n4)CC3)c2c1C the screen gave SAM-II: no hit; TPP: no hit; PreQ1: no hit. For OCCCc1nnc(Sc2c(O)cc(N3CCOCC3)c3ccccc23)n1-c1ccccc1 the calls were SAM-II: no hit; TPP: no hit; PreQ1: no hit. For Cc1nc(-c2cc3cccc(C)c3nc2NCCc2ccc(Cl)cc2)no1 the calls were TPP: no hit; PreQ1: no hit.

For C=CCSc1ncc(C(=O)OCC)c(N)n1 the calls were TPP: no hit; PreQ1: no hit. With CC1CCc2c(sc(N)c2C(=O)Nc2ccc(Cl)cc2)C1 (stereo not drawn) the screen gave SAM-II: no hit; TPP: no hit; PreQ1: no hit. With CCOC(=O)[C@]12CCCN[C@@H]1CCN(c1ccnc(SC)n1)C2 the screen gave SAM-II: no hit; TPP: no hit; PreQ1: no hit. With Cc1ccc(C)c(C(=O)COC(=O)c2nonc2N)c1 the screen gave SAM-II: no hit; TPP: no hit; PreQ1: no hit. For Clc1ccc(Nc2c(-c3ccc(N4CCOCC4)cc3)nc3cnccn23)cc1 the calls were SAM-II: no hit; TPP: no hit; PreQ1: no hit. Calls for OC1(CNCc2nnc3ccccn23)CNCCOC1 (stereo not drawn) are SAM-II: no hit; TPP: no hit; PreQ1: no hit.

Calls for Cn1c(CO)nnc1C1CCN(C(=O)Nc2cc(C(N)=O)ccc2F)CC1 are SAM-II: no hit; TPP: no hit; PreQ1: no hit. Calls for CCn1cnc2cc(NCc3ccc(OC)cc3)ccc21 are SAM-II: no hit; TPP: no hit; PreQ1: no hit. Calls for Cn1c(=O)n(C)c2cc(S(=O)(=O)NCCO)ccc21 are SAM-II: no hit; TPP: no hit; PreQ1: no hit. Calls for Cc1ccccc1Nc1nc2ccccc2n2c(C)nnc12 are SAM-II: no hit; TPP: no hit; PreQ1: no hit. Calls for O=C(NCCN1CCCC(c2ccccc2)C1)c1ccc2[nH]c(CO)nc2c1 (stereo not drawn) are SAM-II: no hit; TPP: no hit; PreQ1: no hit. With NC(=O)C1=C(NCc2ccc3c(c2)OCO3)c2ccccc2S1(=O)=O the screen gave TPP: no hit; PreQ1: no hit.

For CN(C)CCN1C(=O)c2cccc3cc(N)cc(c23)C1=O the calls were SAM-II: no hit; TPP: no hit; PreQ1: no hit. For CC(C)(C)c1ccc(C(=O)N2CCOC23CCCCC3)cc1 the calls were SAM-II: no hit; TPP: no hit; PreQ1: no hit. N#CC1=C(N)Oc2[nH]nc(-c3ccccc3)c2C1c1cccc(Br)c1 (stereo not drawn) was scored SAM-II: no hit; TPP: no hit; PreQ1: no hit. For Clc1nnc(NC2CCCCC2)c(Cl)c1Cl the calls were SAM-II: no hit; TPP: no hit; PreQ1: no hit. For Clc1ccc2nc(-c3cccnc3)c(NC3CCCCC3)n2c1 the calls were SAM-II: no hit; TPP: no hit; PreQ1: no hit. With Cc1cc2c(c(=O)o1)C(c1ccc(F)cc1F)C(C#N)=C(N)O2 (stereo not drawn) the screen gave SAM-II: no hit; TPP: no hit; PreQ1: no hit.

With COC(=O)C1=C(N)OC2=C(C(=O)CC(C)(C)C2)C1c1ccc(OC)cc1 (stereo not drawn) the screen gave SAM-II: no hit; TPP: no hit; PreQ1: no hit. With NCCn1cc(C(=O)N(Cc2c(F)cccc2Cl)C2CC2)nn1 the screen gave SAM-II: no hit; TPP: no hit; PreQ1: no hit. With CSc1nccc(N2CCC(NCc3cc4cc(F)ccc4[nH]3)CC2)n1 the screen gave SAM-II: no hit; TPP: no hit; PreQ1: no hit. With Cc1ncn(CC(=O)N[C@@H]2CCNC[C@H]2O)c1C the screen gave SAM-II: no hit; TPP: no hit; PreQ1: no hit. For Cc1cccc(Cn2c(CO)nc3ccccc32)c1 the calls were SAM-II: no hit; TPP: no hit; PreQ1: no hit. For COCCN(Cc1nccs1)C(=O)CCc1cc2n(n1)CCNC2 the calls were SAM-II: no hit; TPP: no hit; PreQ1: no hit.

For COc1ccccc1N(CC(O)COc1ccc(Cl)cc1)S(=O)(=O)c1ccccc1 (stereo not drawn) the calls were SAM-II: no hit; TPP: no hit; PreQ1: no hit. With C=CCOc1ccc(S(C)(=O)=O)cc1 the screen gave SAM-II: no hit; TPP: no hit; PreQ1: no hit. Calls for NC(=O)c1ccc(-c2ccccc2CO)nc1 are SAM-II: no hit; TPP: no hit; PreQ1: no hit.

The first 2 entries again:

{"compound": "Cc1nc(N(C)C)ncc1C(=O)NCCN1CCCC(CO)C1", "stereo": "stereo not drawn", "SAM-II": "no hit", "TPP": "no hit", "PreQ1": "no hit"}
{"compound": "NCCO[C@H]1C[C@@H](O)C12CCN(Cc1ccc3nsnc3c1)CC2", "SAM-II": "no hit", "TPP": "no hit", "PreQ1": "no hit"}